What all share (assay): co-IP; HEK293T cells co-transfected, lysed 48 h later in RIPA buffer (150 mM NaCl, 1% NP-40, 0.5% DOC, 0.1% SDS, 50 mM Tris, pH 7.5); 1 mg/mL lysate pre-cleared, 4 ug anti-His or anti-Myc antibody overnight, protein G sepharose, three washes in RIPA; western blot for His and Myc
Assay [1] concerns the target T1, ECSIT (evolutionarily conserved signalling intermediate in the toll pathway), wild type, 6xHis-tagged (mouse) (UniProt Q9QZH6).
T1 sequence: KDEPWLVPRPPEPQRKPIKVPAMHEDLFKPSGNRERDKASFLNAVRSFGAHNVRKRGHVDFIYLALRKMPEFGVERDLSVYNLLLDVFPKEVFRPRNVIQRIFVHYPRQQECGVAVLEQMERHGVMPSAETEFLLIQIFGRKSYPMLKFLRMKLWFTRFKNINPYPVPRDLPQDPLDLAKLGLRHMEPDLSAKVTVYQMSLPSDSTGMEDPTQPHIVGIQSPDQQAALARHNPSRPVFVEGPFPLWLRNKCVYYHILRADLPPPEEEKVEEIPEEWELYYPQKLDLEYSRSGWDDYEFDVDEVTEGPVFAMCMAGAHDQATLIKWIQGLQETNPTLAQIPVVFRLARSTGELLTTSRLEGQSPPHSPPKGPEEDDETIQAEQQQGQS

Assay [2] deals with T2, ECSIT N209I, 6xHis-tagged (mouse) (UniProt Q9QZH6).
T2 sequence: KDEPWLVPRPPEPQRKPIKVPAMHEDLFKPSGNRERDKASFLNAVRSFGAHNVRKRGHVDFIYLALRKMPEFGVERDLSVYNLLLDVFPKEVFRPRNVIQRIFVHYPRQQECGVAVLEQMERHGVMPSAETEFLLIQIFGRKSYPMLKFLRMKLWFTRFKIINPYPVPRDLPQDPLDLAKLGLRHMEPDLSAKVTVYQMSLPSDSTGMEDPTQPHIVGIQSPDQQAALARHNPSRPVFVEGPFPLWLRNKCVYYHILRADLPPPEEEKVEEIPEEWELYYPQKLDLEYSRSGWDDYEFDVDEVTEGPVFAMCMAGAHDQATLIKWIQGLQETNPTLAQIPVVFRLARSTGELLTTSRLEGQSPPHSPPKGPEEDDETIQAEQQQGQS

Assay [3] deals with T3, NDUFAF1, wild type, Myc-tagged (mouse) (UniProt Q9CWX2).
T3 sequence: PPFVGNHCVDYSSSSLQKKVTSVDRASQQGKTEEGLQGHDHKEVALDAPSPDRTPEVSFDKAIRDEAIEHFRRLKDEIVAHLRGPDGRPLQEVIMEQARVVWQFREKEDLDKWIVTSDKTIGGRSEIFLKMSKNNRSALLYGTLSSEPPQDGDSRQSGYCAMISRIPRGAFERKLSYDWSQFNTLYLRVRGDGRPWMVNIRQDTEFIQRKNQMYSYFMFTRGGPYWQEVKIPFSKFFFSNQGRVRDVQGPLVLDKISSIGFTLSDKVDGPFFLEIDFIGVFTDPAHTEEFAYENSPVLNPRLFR

Assay [4] concerns the target T4, ACAD9, wild type, Myc-tagged (UniProt Q8JZN5).
T4 sequence: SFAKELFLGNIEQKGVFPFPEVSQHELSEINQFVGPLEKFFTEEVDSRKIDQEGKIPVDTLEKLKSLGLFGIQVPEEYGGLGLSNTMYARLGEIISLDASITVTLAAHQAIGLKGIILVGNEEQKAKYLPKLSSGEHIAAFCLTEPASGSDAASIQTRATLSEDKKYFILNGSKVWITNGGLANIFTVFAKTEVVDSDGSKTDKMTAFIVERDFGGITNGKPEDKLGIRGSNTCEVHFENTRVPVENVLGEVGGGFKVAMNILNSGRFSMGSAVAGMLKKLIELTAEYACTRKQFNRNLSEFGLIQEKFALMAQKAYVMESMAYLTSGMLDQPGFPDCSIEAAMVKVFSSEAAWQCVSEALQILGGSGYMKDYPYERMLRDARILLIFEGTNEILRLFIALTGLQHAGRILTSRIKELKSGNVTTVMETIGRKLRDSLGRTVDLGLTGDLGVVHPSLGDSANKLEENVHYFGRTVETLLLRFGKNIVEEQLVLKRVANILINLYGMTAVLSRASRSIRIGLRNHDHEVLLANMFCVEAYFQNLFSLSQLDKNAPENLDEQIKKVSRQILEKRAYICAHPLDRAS

These are yes or no findings as the source states them, for the method shown. In cells and extracts the contact can be indirect. Some results given as binding are weak or reduced against the parent protein; the word gives no strength. Sequences can lack the tags named with a protein.

B1: ACAD9, wild type, Myc-tagged (protein, UniProt Q8JZN5 42-625)
chain: SFAKELFLGNIEQKGVFPFPEVSQHELSEINQFVGPLEKFFTEEVDSRKIDQEGKIPVDTLEKLKSLGLFGIQVPEEYGGLGLSNTMYARLGEIISLDASITVTLAAHQAIGLKGIILVGNEEQKAKYLPKLSSGEHIAAFCLTEPASGSDAASIQTRATLSEDKKYFILNGSKVWITNGGLANIFTVFAKTEVVDSDGSKTDKMTAFIVERDFGGITNGKPEDKLGIRGSNTCEVHFENTRVPVENVLGEVGGGFKVAMNILNSGRFSMGSAVAGMLKKLIELTAEYACTRKQFNRNLSEFGLIQEKFALMAQKAYVMESMAYLTSGMLDQPGFPDCSIEAAMVKVFSSEAAWQCVSEALQILGGSGYMKDYPYERMLRDARILLIFEGTNEILRLFIALTGLQHAGRILTSRIKELKSGNVTTVMETIGRKLRDSLGRTVDLGLTGDLGVVHPSLGDSANKLEENVHYFGRTVETLLLRFGKNIVEEQLVLKRVANILINLYGMTAVLSRASRSIRIGLRNHDHEVLLANMFCVEAYFQNLFSLSQLDKNAPENLDEQIKKVSRQILEKRAYICAHPLDRAS
On to B1, for which the binding result in assay [1] and in assay [2] was “binds” throughout.

B2: TRAF6 (tumour necrosis factor receptor-associated factor 6), wild type, Myc-tagged (protein, UniProt P70196 1-530)
chain: MSLLNCENSCGSSQSSSDCCAAMAASCSAAVKDDSVSGSASTGNLSSSFMEEIQGYDVEFDPPLESKYECPICLMALREAVQTPCGHRFCKACIIKSIRDAGHKCPVDNEILLENQLFPDNFAKREILSLTVKCPNKGCLQKMELRHLEDHQVHCEFALVNCPQCQRPFQKCQVNTHIIEDCPRRQVSCVNCAVSMAYEEKEIHDQSCPLANIICEYCGTILIREQMPNHYDLDCPTAPIPCTFSVFGCHEKMQRNHLARHLQENTQLHMRLLAQAVHNVNLALRPCDAASPSRGCRPEDPNYEETIKQLESRLVRQDHQIRELTAKMETQSMYVGELKRTIRTLEDKVAEMEAQQCNGIYIWKIGNFGMHLKSQEEERPVVIHSPGFYTGRPGYKLCMRLHLQLPTAQRCANYISLFVHTMQGEYDSHLPWPFQGTIRLTILDQSEALIRQNHEEVMDAKPELLAFQRPTIPRNPKGFGYVTFMHLEALRQGTFIKDDTLLVRCEVSTRFDMGGLRKEGFQPRSTDAGV
As for B2, the binding entry in assay [1] and in assay [2] was “binds” each time.

B3: NDUFAF1, wild type, Myc-tagged (protein, UniProt Q9CWX2 25-328)
chain: PPFVGNHCVDYSSSSLQKKVTSVDRASQQGKTEEGLQGHDHKEVALDAPSPDRTPEVSFDKAIRDEAIEHFRRLKDEIVAHLRGPDGRPLQEVIMEQARVVWQFREKEDLDKWIVTSDKTIGGRSEIFLKMSKNNRSALLYGTLSSEPPQDGDSRQSGYCAMISRIPRGAFERKLSYDWSQFNTLYLRVRGDGRPWMVNIRQDTEFIQRKNQMYSYFMFTRGGPYWQEVKIPFSKFFFSNQGRVRDVQGPLVLDKISSIGFTLSDKVDGPFFLEIDFIGVFTDPAHTEEFAYENSPVLNPRLFR
B3: the binding entry in assay [1] is given as “binds”.

B4: ECSIT (evolutionarily conserved signalling intermediate in the toll pathway), wild type, 6xHis-tagged (protein, UniProt Q9QZH6 49-435)
chain: KDEPWLVPRPPEPQRKPIKVPAMHEDLFKPSGNRERDKASFLNAVRSFGAHNVRKRGHVDFIYLALRKMPEFGVERDLSVYNLLLDVFPKEVFRPRNVIQRIFVHYPRQQECGVAVLEQMERHGVMPSAETEFLLIQIFGRKSYPMLKFLRMKLWFTRFKNINPYPVPRDLPQDPLDLAKLGLRHMEPDLSAKVTVYQMSLPSDSTGMEDPTQPHIVGIQSPDQQAALARHNPSRPVFVEGPFPLWLRNKCVYYHILRADLPPPEEEKVEEIPEEWELYYPQKLDLEYSRSGWDDYEFDVDEVTEGPVFAMCMAGAHDQATLIKWIQGLQETNPTLAQIPVVFRLARSTGELLTTSRLEGQSPPHSPPKGPEEDDETIQAEQQQGQS
On to B4, for which the binding result in assay [3] and in assay [4] was “binds” throughout.

B5: ECSIT N209I, 6xHis-tagged (protein, UniProt Q9QZH6 49-435)
chain: KDEPWLVPRPPEPQRKPIKVPAMHEDLFKPSGNRERDKASFLNAVRSFGAHNVRKRGHVDFIYLALRKMPEFGVERDLSVYNLLLDVFPKEVFRPRNVIQRIFVHYPRQQECGVAVLEQMERHGVMPSAETEFLLIQIFGRKSYPMLKFLRMKLWFTRFKIINPYPVPRDLPQDPLDLAKLGLRHMEPDLSAKVTVYQMSLPSDSTGMEDPTQPHIVGIQSPDQQAALARHNPSRPVFVEGPFPLWLRNKCVYYHILRADLPPPEEEKVEEIPEEWELYYPQKLDLEYSRSGWDDYEFDVDEVTEGPVFAMCMAGAHDQATLIKWIQGLQETNPTLAQIPVVFRLARSTGELLTTSRLEGQSPPHSPPKGPEEDDETIQAEQQQGQS
Take B5: the binding result in assay [3] and in assay [4] was “binds” in each case.
